Data as given in PubChem BioAssay AID1347423 (Functional Genomics Laboratory (NCATS/FGL), 2020).
Among all 52,000 sequences or so, about 210 (0.4%) were called active.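 Rule for the calls: active = gene whose silencing raises cell survival under the drug, median off-target-corrected z-score across its silencing RNAs 2 or more; inactive = the rest.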 Some of the results follow.

Test: Resistance to Poly (ADP-Ribose) Polymerase inhibitor: Gene Identification via Genome-wide siRNA Screen
Details: mouse BRCA2 R2336H ES cells, olaparib, CellTiter-Glo viability; stronger effect = higher value
How it was run: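 Mouse BRCA2 R2336H ES cells were reverse-transfected with siRNA (20 nM final), treated at 48 h with 500 nM olaparib, and read by CellTiter-Glo after 72 h. Scores: MAD-based z per siRNA, median per gene, seed off-target correction.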

| Sequence | z-score |
| --- | --- |
| CCUGGCCGUCAUAGAUCUCTT against Olfr464 | inactive: 0.584 |
| GGAAAUUGAAGAGAAAGUGTT against MGC6357 | inactive: -0.114 |
| CCGAAGCAUGAAGAAUCUATT against Tubd1 | inactive: 1.51 |
| GCAAAAUAGAUCAGUAUUCTT against Gabra6 | inactive: 0.595 |
| GGAGAUGUGUCCUUGACGATT against Havcr1 | inactive: 1.48 |
| GGGUUUUAUCAGCUAAAAATT against D3Bwg0562e | inactive: 2.55 |
| CGAAGUUCAUUCCUGUCUATT against Myf6 | inactive: -0.688 |
| GCCUAGCUGACAUUAAAGGTT against 1700017I11Rik | inactive: 0.228 |
| GGACAUCAAGCCCUUACCATT against Rxrg | inactive: -1.14 |
| GGUGAAGUGGAAGAUUCGGTT against Ror2 | inactive: 0.0372 |
| GGAAGUAUUUGAUCAUGGATT against Smarca5 | inactive: -1.14 |
| CCCGCAUGCUCUUUGUAACTT against 4632411B12Rik | inactive: -0.714 |
| GCGUCUCAUAGAGUUGGUGTT against 2900024O10Rik | inactive: 0.145 |
| GCAGAAAAUACCCAGUUUGTT against Hmox2 | inactive: 1.02 |
| GGGCAUCAUCACUUGUGCCTT against Crim2 | inactive: 0.317 |
| GGAAAAUCAACAGCAUCAATT against Olfr661 | inactive: -0.0718 |
| GGAAAUGAAGGAAAAGGAATT against 5730405I09Rik | inactive: 0.0154 |
| GCCUGUGCAAAAAGUAGGGTT against Grasp | inactive: 0.137 |
| GGAGUAUGAAUUUGUGACUTT against Arhgdig | inactive: -1.08 |
| GUGUCUUGGGAAACAACUUTT against Gchfr | inactive: 0.478 |
| GCAGAAAGAAUGCAGAUAATT against Zfp281 | inactive: -1.9 |
| CGUACUCCGAAUUCAUGCATT against 2610003J06Rik | inactive: 0.144 |
| GGAGAGUAAAUACCGACAGTT against Homer2 | inactive: 2.85 |

Quoted at random: three records from the list, in no set order.

| Sequence | z-score |
| --- | --- |
| GGAGAGUAAAUACCGACAGTT against Homer2 | inactive: 2.85 |
| GUGUCUUGGGAAACAACUUTT against Gchfr | inactive: 0.478 |
| CCUGGCCGUCAUAGAUCUCTT against Olfr464 | inactive: 0.584 |

Continued:

| Sequence | z-score |
| --- | --- |
| GGUUGUGUUGCUAAUCUUUTT against Trf3 | inactive: -0.649 |
| GGGAUACUGGUGCUUAACUTT against Abhd1 | inactive: 0.661 |
| GGCCACCUUGUGUUUAUCUTT against Lrg1 | inactive: 1.78 |
| AUACAACAGCACAACUGAUTT against BC015286 | inactive: 0.104 |
| GCAAUGCAUGAAGACUCGUTT against Sitpec | inactive: -1.05 |
| CCAGUUUAUUGAGAAUAAGTT against Rab4b | inactive: 1.06 |
| GGUUCUCAGUCAUAUUUACTT against Fbxl12 | inactive: 0.599 |
| GGAAGAGGAGGAACAGAGATT against Hmga1l4 | inactive: 1.42 |
| GCAUUGUGGAACAAACCUATT against Gabpa | inactive: -2.36 |
| GGGCUUUGGCUACAAAGGCTT against Ppif | inactive: -0.35 |
| GGAAGAAGCCAAAAUUGAATT against Pdgfa | inactive: 1.24 |
| CGACUUGACAUCGUCAGUATT against Cno | inactive: -0.0146 |
| CCAAAAGCUUUUGUGUUCATT against 1200006O19Rik | inactive: -0.905 |
| GGAGCUACCCGACAUACUGTT against Cfi | inactive: 1.06 |
| GGGUUUAGACGUAGAUUCUTT against Rpl17 | inactive: -3.07 |
| GGGACCAGAAUAUGACUGGTT against Ppp2cz | inactive: -0.348 |
| GCGUGUAUACCAGCCUUACTT against Egfl7 | inactive: -3.23 |
| GCCGGAUGUUCUUUGGCAATT against 2610012O22Rik | inactive: -0.683 |
| GGCAUGAUGAUAUUUGAAATT against Glrp1 | inactive: -0.524 |
| GCUCUCCACUGACUUAGUATT against Mrgpra3 | inactive: 0.285 |
| GGUCAUGAUGAAUGAGACUTT against Cstf1 | inactive: 1.05 |
| CCUGUACCUGACCAAACCUTT against Socs2 | inactive: -0.498 |
| GGUCUUAUGUAAGUGGUAUTT against Asrij | inactive: -1.28 |

| Sequence | z-score |
| --- | --- |
| GGUGAACUGAAAAUUCUAGTT against Usp12 | inactive: 0.882 |
| GGAAGCAUUUGAAGUUAAATT against Prdm16 | inactive: 0.00871 |
| CCAUACUACGGAUGUUUGATT against Calb2 | inactive: 0.535 |
| CCAUGUCAAAGAAAAACCATT against Rfx2 | inactive: 0.0165 |
| GGAUUCCUGGUCUUUAAGCTT against Zfp7 | inactive: 0.136 |
| GGUCAGCAUUAUCAAGCCUTT against Hsd11b2 | inactive: 2.61 |
| GGAGAGAAAGGAAAUGUUUTT against D5Ertd135e | inactive: -1.6 |
| GGUCACACCCACCAUUACGTT against Serpina11 | inactive: -1.79 |
| GGAUCCUAAUGAGGACAUUTT against Igj | inactive: 1.15 |
| CCUAUUGACUGUGAGCUAUTT against C8b | inactive: -1.18 |
| CGUAGAGAGUCUCCCAUCATT against 4930474N05 | inactive: -0.0472 |
| GGAACAAAUAAAUCAGGGATT against Smc6l1 | inactive: -0.89 |
| UCAACCAAACAAUCCUGAATT against Olfr417 | inactive: 0.443 |
| GGAUGUGAUCCUACUGACATT against Hspc171 | inactive: -1.37 |
| GGUCAUCCUCAAGUCUCCUTT against Stmn3 | inactive: 0.261 |
| GGACGAUGAAGACAGCAAGTT against Scn8a | inactive: 0.983 |
| GGGAAAAAGAGCUUUUAGCTT against Helt | inactive: 0.211 |
| GGUGUUGCUGUGUUUUAUATT against Olfr1259 | inactive: 1.04 |
| CGACAUGGAGACAAUCUAUTT against Ptges | inactive: -1.04 |
| GAGAUGGAUGGAAAAAAAATT against 1700127D06Rik | inactive: -0.00882 |
| GGACGACUGGAAGUUUUCUTT against 5830411N06Rik | inactive: -1.02 |
